This note sets out measurements from PubChem BioAssay AID1487 (National Center for Advancing Translational Sciences (NCATS), 2009).

This assay can be described thus: qHTS Assay for Modulators of Lamin A Splicing. The following applies: HeLa LMNA splicing GFP/RFP minigene ratio, 48 h. The method, boiled down: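 S3 HeLa cells stably expressing lamin A-EGFP splicing minigene plus DsRed2, 600 cells/well, 48 h compound exposure at 37C. Laser-scanning cytometry; analysed as GFP (500-530 nm)/RFP (575-640 nm) total intensity ratio; 0.5% DMSO vehicle.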
A general note: In qHTS, concentration-response curves come from the screen itself.

[1] abbreviates: measured here: GFP splicing reporter channel.
Setting [2] is: measured here: RFP viability control channel.

What is called AC50 is the concentration giving half of the maximal activity seen.

Some of the results follow. Further columns of the screen follow, without active or inactive calls. Compounds called inactive in the main read-out are mostly missing here. Words in brackets tell the shape of the fitted curve; partial curves, single points and poor fits give uncertain potencies.

Turning to `Cc1ccccc1C(=O)N1CCN(c2ncnc3c2cnn3-c2ccccc2)CC1`, the AC50 runs as follows: under setting [1], 1.12 µM [rising, full curve, poor fit]; under setting [2], 12.6 µM [rising, partial curve]. For the molecule `COc1ccc(-c2nc3cnc(Nc4ccccc4)nc3n(Cc3cccs3)c2=O)cc1`, the AC50 under setting [1] is 22.4 µM [falling, partial curve] and the AC50 under setting [2] was 22.4 µM [falling, partial curve]. On to `CCc1nnc(NC(=O)CSc2nc(SC)ns2)s1`, for which the concentration at half-maximal activity (AC50) under setting [1] was 35.5 µM [falling, partial curve, poor fit]. `OCCN1CCN(c2cc(-c3ccccc3)c3ccccc3n2)CC1`: the concentration at half-maximal activity (AC50) under setting [2] was 0.562 µM [rising, full curve, poor fit]. For `O=C1CCSc2ccc(Cl)cc2N1Cc1ccc(Cl)cc1`, the AC50 under setting [1] was 5.01 µM [rising, partial curve] and the AC50 under setting [2] was 15.8 µM [rising, single point]. In the case of `CCN(CC)C1=C(Cl)C(=O)C(Cl)C12OCCO2` (stereo not given), the AC50 under setting [1] is 1 µM [rising, full curve, poor fit]. `Cc1cc(C(=O)CSc2nc3ccccc3[nH]2)c(C)n1Cc1ccco1`: the AC50 runs as follows: under setting [1], 4.47 µM [rising, full curve]; under setting [2], 2.82 µM [rising, full curve]. With `COc1ccc(C(C)=O)cc1CSc1nnc(C)s1`, the AC50 under setting [1] was 35.5 µM [rising, single point].

Regarding `Cc1nc(N/N=C/c2ccccn2)sc1C`, the AC50 reads like this: under setting [1], 7.08 µM [rising, partial curve, poor fit]; under setting [2], 14.1 µM [rising, partial curve]. `CCCCCCCCCCCC(=O)NC(C(=O)OCC)C(O)c1cccc([N+](=O)[O-])c1` (stereo not given): the AC50 runs as follows: under setting [1], 22.4 µM [falling, single point]; under setting [2], 22.4 µM [falling, partial curve]. Regarding `CCCNS(=O)(=O)c1ccc(CCC(=O)Nc2ccc3c(c2)OCO3)cc1`, the concentration at half-maximal activity (AC50) was 14.1 µM [rising, partial curve] under setting [1] and 7.94 µM [rising, partial curve] under setting [2].

Regarding `O=C(NCCN1CCCCC1)c1c(O)c2ccccc2[nH]c1=O`, the AC50 runs as follows: under setting [1], 0.398 µM [falling, full curve, poor fit]; under setting [2], 0.00316 µM [falling, full curve, poor fit].

As to `Cc1cc(Br)c(OCc2ccc(C(=O)N/N=C3\CC4CC=CC34)cc2)c(Br)c1` (stereo not given), the AC50 under setting [2] was 11.2 µM [rising, partial curve, poor fit]. Still for that read-out and setting: in the case of `CC(C)C[C@H](N)c1nnc(S(=O)(=O)Cc2ccc(F)cc2)o1` it was 35.5 µM [rising, single point]; in that of `CC(C)Sc1nc2c([nH]c3ccccc32)c(=O)n1C`, 1.26 µM [falling, partial curve].

Regarding `CCOc1ccc(S(=O)(=O)N2CCCCC2)c2ccccc12`, the AC50 runs as follows: under setting [1], 12.6 µM [rising, partial curve, poor fit]; under setting [2], 35.5 µM [rising, single point]. As for `Cc1ccc(N(CC(=O)Nc2c(C)n(C)n(-c3ccccc3)c2=O)S(C)(=O)=O)cc1C`, the AC50 under setting [2] was 35.5 µM [rising, single point]. The same measure, in the same setting: in the case of `Cc1cc(O)c(/C=N/Nc2ccc(F)cc2)c(=O)o1` it was 7.94 µM [rising, partial curve, poor fit]; in that of `c1ccc2nc(-c3ccc4c(c3)OCO4)ccc2c1`, 1.12 µM [falling, full curve, poor fit]. `Cc1cc(NC(=O)Cc2ccccc2)nc2c1c(=O)oc1ccccc12`: the AC50 under setting [1] was 31.6 µM [rising, single point] and the AC50 under setting [2] was 31.6 µM [rising, single point]. As to `COc1ccc(C(CC(=O)c2ccc(O)cc2)S(=O)(=O)c2ccc(C)cc2)cc1` (stereo not given), the AC50 runs as follows: under setting [1], 15.8 µM [falling, partial curve]; under setting [2], 35.5 µM [falling, single point]. Consider `Brc1ccc2ncnc(Nc3ccc(N4CCOCC4)cc3)c2c1`, for which the AC50 under setting [1] is 10 µM [rising, partial curve, poor fit]. As for `O=C(CC1C(=O)NCCN1Cc1cccc(Oc2ccccc2)c1)NCCc1cscn1` (stereo not given), under setting [2], the AC50 is 0.0316 µM [falling, full curve, poor fit]. Consider `CC(NCc1cccc(S(=O)(=O)N(C)C)c1)c1ccc(F)cc1` (stereo not given), for which the AC50 under setting [1] was 35.5 µM [rising, partial curve, poor fit]. As for `Cc1cc(C(=O)NNC(=S)NC(C)c2ccccc2)cs1` (stereo not given), the AC50 was 35.5 µM [rising, single point] under setting [1] and 35.5 µM [rising, single point] under setting [2]. For the molecule `O=C(NCc1ccc(F)cc1)c1cc2cccc3c2n1CCS3`, the AC50 under setting [2] was 0.00891 µM [falling, full curve, poor fit]. Consider `COc1ccc(C2C(C(=O)Nc3cccc(C)n3)CCC(=O)N2c2ccc(OC)cc2)cc1` (stereo not given), for which the AC50 by setting is: under setting [1], 1.41 µM [falling, full curve]; under setting [2], 10 µM [falling, partial curve].

Turning to `Cc1nc(-c2ccccc2)nc2[nH]c(=O)n(-c3ccccc3)c(=O)c12`, the AC50 under setting [2] was 12.6 µM [rising, single point]. Turning to `CC(C)NC(=S)NN=C1CCCCCCCCCCC1`, the AC50 was 35.5 µM [rising, single point] under setting [1] and 15.8 µM [rising, single point] under setting [2]. On to `COc1ccccc1N1CCN(Cc2nc(N)nc(Nc3ccc(C)cc3)n2)CC1`, for which the AC50 under setting [2] was 25.1 µM [rising, single point]. As for `CC(=O)Nc1ccc(/C=C(\C#N)C(=O)NC2CCCCC2)cc1`, the AC50 under setting [1] was 0.891 µM [falling, full curve, poor fit] and the AC50 under setting [2] was 0.708 µM [falling, full curve, poor fit].

As for `COc1ccc(-c2cc(=Nc3ccc(C)cc3)c3ccccc3o2)cc1`, the AC50 was 0.447 µM [falling, full curve, poor fit] under setting [1] and 0.126 µM [falling, full curve, poor fit] under setting [2]. As for `COc1ccccc1Cc1nc2ccccc2nc1SCC(=O)Nc1ccc2c(c1)OCO2`, the AC50 under setting [1] is 0.794 µM [rising, full curve, poor fit].

Regarding `Cc1ccc(S(=O)(=O)N2CCCC2C(=O)Nc2nc3ccccc3s2)cc1` (stereo not given), the AC50 is, setting by setting: under setting [1], 15.8 µM [rising, single point]; under setting [2], 35.5 µM [rising, single point]. `CCN(CC)C(=O)CSc1ncnc2sc(-c3ccccc3)cc12`: the AC50 under setting [1] is 22.4 µM [rising, partial curve, poor fit] and the concentration at half-maximal activity (AC50) under setting [2] was 25.1 µM [rising, single point]. With `CCOc1cc(/C=N/NC(=O)c2cc(-c3cccnc3)nc3ccccc23)ccc1O`, the AC50 under setting [2] was 0.0158 µM [rising, full curve]. Take `CC(=O)[C@]1(O)Cc2c(O)c3c(c(O)c2[C@@H](O[C@H]2C[C@H](N)[C@H](O)[C@H](C)O2)C1)C(=O)c1ccccc1C3=O`: the AC50 was 0.631 µM [falling, full curve] under setting [1] and 0.316 µM [falling, full curve] under setting [2].

Regarding `CCCOC(=O)c1ccc(Oc2c(-c3ccc(OC)cc3O)n[nH]c2C)cc1`, the AC50 runs as follows: under setting [1], 17.8 µM [falling, single point]; under setting [2], 35.5 µM [falling, single point]. Turning to `O=C(/C=C/c1cccc([N+](=O)[O-])c1)NCCSCc1ccc(Cl)cc1`, under setting [2], the AC50 is 11.2 µM [rising, partial curve, poor fit]. With `Cc1ccccc1OCCOc1ccccc1C=C(C#N)C#N`, the AC50 under setting [1] is 12.6 µM [falling, partial curve]. Consider `O=C(OCn1ncc(Br)c(Br)c1=O)c1ccc(F)cc1`, for which the AC50 under setting [2] was 6.31 µM [falling, single point]. With `C=CCc1cccc(CNc2nc3ccccc3n2C(C)C)c1O`, the AC50 under setting [2] is 12.6 µM [rising, partial curve]. As for `Cc1ccc(N(C)C(=O)c2ccc3c(Cl)c4c(nc3c2)CCC4)cc1C`, the half-maximal activity concentration (AC50) by setting is: under setting [1], 14.1 µM [rising, single point]; under setting [2], 17.8 µM [rising, partial curve]. In the case of `OCc1nc2ccccc2n1CC(O)Cn1ccc2ccccc21` (stereo not given), the AC50 was 12.6 µM [rising, partial curve] under setting [1] and 11.2 µM [rising, partial curve] under setting [2].

Turning to `Oc1[nH]c(=S)sc1/C=C1\C(c2ccccc2)=Nc2ccccc21`, the AC50 under setting [2] is 12.6 µM [rising, partial curve]. `O=C1CC(c2ccc3c(c2)OCO3)c2cc3c(cc2N1)OCO3` (stereo not given): the AC50 reads like this: under setting [1], 11.2 µM [rising, partial curve, poor fit]; under setting [2], 15.8 µM [rising, single point].

`Cc1cc(OC(=O)c2ccccc2Br)cc(=O)n1C`: the half-maximal activity concentration (AC50) is, setting by setting: under setting [1], 20 µM [falling, single point]; under setting [2], 31.6 µM [falling, single point]. On to `O=[N+]([O-])c1cccc(N/N=C/c2cccc(O)c2O)c1`, for which the concentration at half-maximal activity (AC50) under setting [1] is 35.5 µM [rising, single point] and the concentration at half-maximal activity (AC50) under setting [2] is 31.6 µM [rising, single point]. As for `COc1ccc(N(Cc2cccs2)C(=O)COc2cccc(C)c2C)cc1`, the AC50 under setting [2] was 0.00631 µM [falling, full curve, poor fit]. On the same count and under the same terms, in the case of `CCOC(=O)N1CCN(C(=O)CSc2nnc(-c3ccc(C(C)(C)C)cc3)o2)CC1` it was 20 µM [rising, partial curve, poor fit]. In the case of `Cc1nnc(-c2ccc(Oc3ccc(Br)cc3)c([N+](=O)[O-])c2)o1`, the half-maximal activity concentration (AC50) is 12.6 µM [rising, single point] under setting [1] and 17.8 µM [rising, single point] under setting [2]. For `CCOc1ccc(-n2ccnc2SCC(=O)Nc2cccc3ccccc23)cc1`, the AC50 is, setting by setting: under setting [1], 1 µM [falling, full curve]; under setting [2], 1.26 µM [falling, full curve]. As to `O=C(CSc1nnc(Cn2nnc3ccccc32)o1)N(Cc1ccc(Cl)cc1)c1ccccc1`, the AC50 under setting [2] was 2.82 µM [rising, partial curve].
